Results from US8524891B2, “Tetraazaporphyrin-based compounds and their uses” (Board of Supervisors of Louisiana State University and …, priority 2005, dated 2013).

Assay: Stern-Volmer quenching analysis in RET assay
Conditions: quenching of Zn-Pc fluorescence

Row | Compound | Stern-Volmer quenching constant
1 | CCN(CC)c1ccc2nc3ccc(/N=N/c4ccc(N(C)CCCC(=O)O)cc4)cc3[n+](-c3ccccc3)c2c1 [BHQ-3] | 0.0004 M⁻¹
2 | [Ni+2].c1ccc2c(c1)-c1nc-2nc2[n-]c(nc3nc(nc4[n-]c(n1)c1ccccc41)-c1ccccc1-3)c1ccccc21 [Ni-Pc] | 0.013 M⁻¹
